The structures appear in SMILES notation. In brackets after ≈: the same amount, converted by molar mass.

The assay has as its system MCF7. Nature of the assay: Antiproliferative activity against human MCF7 cells assessed as growth inhibition after 24 to 48 hrs by SRB assay. In kind it is functional, cell-based. The essentials: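 Parental MCF-7 cells and doxorubicin-resistant MCF-7/ADrR cells were tested; the resistant line was maintained in medium containing DOX. Each line was treated at 0.039–2.5 µg/mL for 24 and 48 h. Growth was read by SRB staining after TCA fixation, with absorbance at 492 nm. IC50 is the concentration reducing cell number to 50% of control, from triplicates.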
(In general: Sulforhodamine B stains cellular protein and so reports cell mass.)

The IC50 is the concentration that inhibits the measured activity by half. For `COc1cccc2c1C(=O)c1c(O)c3c(c(O)c1C2=O)C[C@@](O)(C(=O)CO)C[C@@H]3O[C@H]1C[C@H](N)[C@H](O)[C@H](C)O1` [DOXORUBICIN], the IC50 turned out to be 0.18 µg/mL (≈ 0.331 µM).

Values taken from ChEMBL document CHEMBL2424621, “Discovery, synthesis and biological evaluation of cycloprotoberberine derivatives as potential antitumor agents” (Eur J Med Chem, 2013).
